These are literature values, as cited in publication PMC12604490, “Dual immunomodulatory and antileishmanial potential of TLR7/8 agonists against Leishmania donovani” (Infection and Immunity, 2025).

Structures are written as SMILES.

The test system of the series is Leishmania infantum. Further details: method as in PMID 35111861. The conditions noted are these: read-out: IC50 against Leishmania infantum; cited from earlier work.

Consider `CN1CC[C@]23c4c5ccc(O)c4O[C@H]2[C@@H](O)C=C[C@H]3[C@H]1C5` [morphine], for which the IC50 (as a rule, the concentration needed to halve the response being measured) was 102 ± 30 nM.
